# PubChem BioAssay AID1224830 – NIAID | 2016
# Test: 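Regulators of TLR4 signalling towards TNF-alpha in macrophage-like cells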 (primary screen)
# System: human THP-1 monocytic leukaemia cells, TNF dual-luciferase reporter clone, PMA-differentiated to macrophage-like cells
# Knock-down reagent: siRNA pool against human genes, 50 nM
# Timing: LPS for 4 h, given about 3 days after siRNA transfection
# Conditions: bacterial LPS (TLR4 ligand), 10 ng/ml
# Measured: 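Ratio of firefly to renilla light, scaled to the plate median and expressed as a robust z-score per replicate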
# Scale: TNF reporter robust z-score: higher = stronger TNF reporter response to LPS
# Hit rule: 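Each well counts as active if its z-score is over 2.8 or under -1.5; controls are left without a call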
# This is one part, drawn at random, of about 18,000 reagents tested. About 2,900 of them (16%) count as active. 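Calls are made per well; low scores hint the gene aids the LPS response, high scores that it dampens it.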 Unmarked entries are inactive. Repeated entries: four replicate wells of each siRNA pool.
gene knocked down,TNF reporter robust z-score
ADRB2,-0.05
ADRB2,-0.88
ADRB2,-1.38
ADRB2,-1.56 (active)
SLAMF1,-0.41
SLAMF1,0.13
SLAMF1,1.65
SLAMF1,1.08
ALDH1A2,0.9
ALDH1A2,0.64
ALDH1A2,0.72
ALDH1A2,1.29
RSRC2,2.39
RSRC2,2.35
RSRC2,3.41 (active)
RSRC2,3.26 (active)
UCHL5,0.76
UCHL5,0.28
UCHL5,0.43
UCHL5,1.49
MPZ,0.3
MPZ,-0.03
MPZ,-0.57
MPZ,0.68
RRM2B,0.64
RRM2B,2.05
RRM2B,0.71
RRM2B,1.59
SPOUT1,-0.4
SPOUT1,-0.37
SPOUT1,0.54
SPOUT1,0.12
MRAP2,0.97
MRAP2,2.3
MRAP2,1.41
MRAP2,1.57
SCRT2,-0.52
SCRT2,-0.53
SCRT2,-1.09
UGT1A4,-0.02
UGT1A4,0.73
UGT1A4,0.04
UGT1A4,1.25
RAB25,-0.75
RAB25,-0.41
RAB25,-0.87
RAB25,-0.28

Entries listed above marked active, once more:
gene knocked down,TNF reporter robust z-score
ADRB2,-1.56 (active)
RSRC2,3.41 (active)
RSRC2,3.26 (active)
